Results: PubChem BioAssay AID2685 (National Center for Advancing Translational Sciences (NCATS), 2010)
Some of the results follow. These are further read-outs of the screen, such as a control signal, another cell line or another target. No call is given for them. The list favours compounds with an active or inconclusive main result. Words in brackets tell the shape of the fitted curve; partial curves, single points and poor fits give uncertain potencies.

Test: qHTS Assay for Lipid Storage Modulators in Drosophila S3 Cells;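 on cell number change: cells counted by Cell Tracker Red CMTPX staining in the red channel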
Conditions: BODIPY lipid droplet fluorescence, 18-24 h; for cell number change: measured here: cell count max response, cells fed with added oleic acid
How it was run: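 Drosophila S3 cells loaded with oleic acid (400 uM, as added) and compounds at several concentrations; lipid droplets imaged by 488-nm laser-scanning cytometry, 500–530 nm intensity and object ratio to cell channel. Percent activity normalized to 20 uM Triacsin C.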

[1] = measured here: lipid fluorescence (Fed channel) AC50, cells fed with added oleic acid
[2] = measured here: cell number channel AC50, cells fed with added oleic acid

SMILES | cell number change [%] | AC50 [1] | AC50 [2]
O=C(O)/C=C/c1cnc2ccccc2n1 | -2.52 | 0.58 µM [falling, single point] | –
O=C(CN1CCCC1)Nc1sc2c(c1C(=O)Nc1ccccc1)CCCC2 | 13.9 | 29.1 µM [rising, single point] | –
Cc1nn(-c2ccccc2)c(NC(=O)c2ccccc2)c1Br | -38.1 | – | 7.31 µM [falling, single point]
C#CCn1c(=NC(=O)CSCC(=O)N2CCOCC2)sc2ccccc21 | 11.8 | 0.651 µM [rising, full curve] | –
C#CCOCCOCCOCCNc1nc(N2CCN(C(=O)CCCCCCCCCCNC(=O)Cn3cc(CCCCCN)nn3)CC2)nc(N2CCN(C(=O)CCCCCCCCCCNC(=O)[C@H]([C@@H](C)CC)n3cc(CCCCCN)nn3)CC2)n1 | -89.7 | – | 16.4 µM [falling, partial curve]
CS(=O)(=O)c1ccc(C(=O)NNC(=O)c2ccccc2-n2cccc2)cc1 | 7.98 | 0.00461 µM [falling, full curve, poor fit] | –
O=C(NCCCO)c1cc2c([nH]c3ccccc32)c(-c2ccccc2)n1 | – | 29.1 µM [rising, single point] | –
O=C(CN1CCOCC1)Nc1ccc(Cl)cc1 | 3.65 | – | –
NNC(=O)c1ccccc1OCc1ccccc1 | 17.6 | 3.66 µM [rising, partial curve, poor fit] | 0.651 µM [rising, full curve, poor fit]
O=C(NC1CCCC1)C(c1ccccc1)N(Cc1ccccc1)C(=O)c1csnn1 (stereo not drawn) | -21 | 6.51 µM [falling, single point] | –
CC(=O)c1sc(N2CCOCC2)nc1-c1ccccc1 | -32 | – | –
CS/C(=N\S(=O)(=O)c1ccc(N)cc1)NS(=O)(=O)c1cccs1 | -26.9 | 18.4 µM [falling, partial curve] | –
O=C1CNC(=O)c2c(nc3n2CCC3)N1 | -14.7 | 0.0651 µM [falling, full curve, poor fit] | –
COC(=O)c1cc(OC)c(OC)cc1NC(=O)c1ccoc1C | – | 1.64 µM [rising, partial curve] | 1.46 µM [rising, partial curve]
COC(=O)c1c(NC(=O)COC(=O)CCc2ccc(S(=O)(=O)N3CCOCC3)cc2)sc2c1CCC2 | 48.6 | 29.1 µM [rising, single point] | 0.58 µM [rising, full curve]
O=c1cc(-c2ccccc2)[nH]n1-c1nc2ccccc2[nH]1 | 1.54 | – | –
CC(=O)SCC(=O)N=c1sc2cc(F)ccc2n1C | -18.4 | – | –
O=Cc1ccc(N2CCCC2)c([N+](=O)[O-])c1 | -36.1 | – | –
COc1ccccc1N1CCN(c2nccc(C)n2)CC1 | 4.65 | 0.0058 µM [rising, full curve, poor fit] | –
CCN(C1CCCCC1)S(=O)(=O)CCNC(=O)c1ccc2c(c1)OCO2 | -39.5 | 1.46 µM [falling, partial curve] | 16.4 µM [falling, partial curve]

At a glance, some entries already given.
SMILES | cell number change [%] | AC50 [1] | AC50 [2]
C#CCOCCOCCOCCNc1nc(N2CCN(C(=O)CCCCCCCCCCNC(=O)Cn3cc(CCCCCN)nn3)CC2)nc(N2CCN(C(=O)CCCCCCCCCCNC(=O)[C@H]([C@@H](C)CC)n3cc(CCCCCN)nn3)CC2)n1 | -89.7 | – | 16.4 µM [falling, partial curve]
CS(=O)(=O)c1ccc(C(=O)NNC(=O)c2ccccc2-n2cccc2)cc1 | 7.98 | 0.00461 µM [falling, full curve, poor fit] | –
O=C(NCCCO)c1cc2c([nH]c3ccccc32)c(-c2ccccc2)n1 | – | 29.1 µM [rising, single point] | –
O=C(CN1CCOCC1)Nc1ccc(Cl)cc1 | 3.65 | – | –
NNC(=O)c1ccccc1OCc1ccccc1 | 17.6 | 3.66 µM [rising, partial curve, poor fit] | 0.651 µM [rising, full curve, poor fit]
O=C(NC1CCCC1)C(c1ccccc1)N(Cc1ccccc1)C(=O)c1csnn1 (stereo not drawn) | -21 | 6.51 µM [falling, single point] | –
CC(=O)c1sc(N2CCOCC2)nc1-c1ccccc1 | -32 | – | –
CS/C(=N\S(=O)(=O)c1ccc(N)cc1)NS(=O)(=O)c1cccs1 | -26.9 | 18.4 µM [falling, partial curve] | –
O=C1CNC(=O)c2c(nc3n2CCC3)N1 | -14.7 | 0.0651 µM [falling, full curve, poor fit] | –

Continuation:

SMILES | cell number change [%] | AC50 [1] | AC50 [2]
CCn1c2ccc(CC(=O)O)cc2c2cc(CC(=O)O)ccc21 | -7.95 | 0.58 µM [falling, full curve] | –
Cc1ccc(NC(=O)COC(=O)/C=C/c2cccs2)cc1 | 5.34 | 29.1 µM [rising, single point] | –
Cc1ccc(N2C(=O)C(NC(=O)c3ccccc3)(C(F)(F)F)C3=C2CC(C)(C)CC3=O)cc1 (stereo not drawn) | -21.7 | – | –
CS(=O)(=O)N1CCc2cc(C(=O)N3CCN(c4cccc(Cl)c4)CC3)ccc21 | -10.9 | 0.58 µM [rising, single point] | –
N#CC1=C(N)OC2=C(C(=O)CCC2)C1c1ccccc1 (stereo not drawn) | -37.8 | 0.00461 µM [falling, full curve, poor fit] | 29.1 µM [falling, partial curve, poor fit]
Cc1ccc(S(=O)(=O)N2CCCOC2CNC(=O)C(=O)NC2CCCCC2)cc1 (stereo not drawn) | -4.15 | 6.51 µM [falling, single point] | –
CC(C)=CCC/C(C)=C/CC/C(C)=N/O | -12.4 | 6.51 µM [falling, single point] | –
Cc1c(OCC(=O)N2C[C@H]3C[C@@H](C2)c2cccc(=O)n2C3)ccc2c3c(c(=O)oc12)CCC3 | -0.647 | 6.51 µM [falling, single point] | –
Cc1ccc2nc(N3CCN(C)CC3)c(C#N)cc2c1 | -59.6 | – | 18.4 µM [falling, single point]
Cc1ccc(C(=O)Nc2ccc(NC(=O)c3cccs3)cc2)cc1[N+](=O)[O-] | -57.4 | 0.13 µM [falling, single point] | 8.2 µM [falling, partial curve]
Cn1c(=O)c2c(nc(NCc3cccnc3)n2Cc2cccc(C(F)(F)F)c2)n(C)c1=O | -16.6 | 0.92 µM [rising, full curve] | –
CCOc1cc(/C=C(\C#N)C(=O)Nc2cccc(C(=O)O)c2)cc(Br)c1OC(=O)c1ccc(OC)cc1 | 22.7 | 6.51 µM [rising, partial curve] | –
COc1ccccc1N(C(=O)c1ccco1)C(C(=O)NC1CCCCC1)c1cc(OC)c(OC)c(OC)c1 (stereo not drawn) | -12.8 | – | –
CCN(CC)S(=O)(=O)c1ccc(N2CCCCC2)c(NC(=O)/C(C#N)=C/c2ccc(OC)cc2)c1 | 35.6 | 3.26 µM [rising, full curve] | 2.91 µM [rising, partial curve]
CCc1cccc(NS(=O)(=O)c2c(C)nc3scc(C)n3c2=O)c1 | – | 6.51 µM [falling, single point] | –
O=C(COC(=O)c1cnccn1)Nc1ncc(Cl)cc1Cl | 7.5 | – | –
O=C(COC(=O)C1=NN(c2ccccc2)C(=O)CC1)NCc1ccccc1Cl | -2.17 | 0.731 µM [falling, single point] | –
COC(=O)c1sc(N)c(C(=O)OC)c1COC(=O)[C@@H](NS(=O)(=O)c1cccc(Cl)c1)C(C)C | 20.9 | – | –
CC(SCC(=O)NC12CC3CC(CC(C3)C1)C2)C(=O)O (stereo not drawn) | 50 | – | 29.1 µM [rising, single point]
